For this data set, the target named is T1, DnaG-E175Q (Saccharolobus (Sulfolobus) solfataricus) (UniProt P95980).
T1 sequence (looked up, limits assumed): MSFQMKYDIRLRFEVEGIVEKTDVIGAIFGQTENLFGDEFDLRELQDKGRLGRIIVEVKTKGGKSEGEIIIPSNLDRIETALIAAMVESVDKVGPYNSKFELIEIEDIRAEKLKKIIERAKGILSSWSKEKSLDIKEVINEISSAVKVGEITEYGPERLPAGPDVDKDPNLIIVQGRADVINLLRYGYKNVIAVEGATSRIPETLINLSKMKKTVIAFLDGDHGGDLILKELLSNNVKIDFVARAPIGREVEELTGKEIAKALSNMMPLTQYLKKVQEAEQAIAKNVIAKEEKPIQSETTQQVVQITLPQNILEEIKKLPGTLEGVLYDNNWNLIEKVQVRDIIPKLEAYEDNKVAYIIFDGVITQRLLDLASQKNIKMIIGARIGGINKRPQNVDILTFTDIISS
Put plainly: EMSA. Particulars: 25 fmol RNA, 2.5 pmol protein; 20 mM HEPES pH 7.9, 60 mM KCl, 10 mM MgCl2, 10% glycerol, 2 mM DTT, 0.1 mM EDTA; room temperature 5 min, 10 ul; 5% native PAA gel at 4 C; recombinant protein; label: 5' label (radioactive). (In general: A gel shift assay detects complexes by their altered migration in electrophoresis.)

Here are results for 1 sequence from publication PMC4227792 (Nucleic Acids Research, 2014).

The exact form of at least one protein or probe is not confirmed. The comparison behind a weaker result is the experiment's own reference, which may not be listed here. Where a protein sequence is shown, tags need not be part of it.

On to “AAAAAAAAAAAAAAAAAAAAAAAAAAAAAA [poly(rA)30]”, for which the binding result is recorded as “binds more weakly”.
